Measurements from publication PMC10628517, “CXCL17 binds efficaciously to glycosaminoglycans with the potential to modulate chemokine signaling” (Frontiers in Immunology, 2023).
No constants are given. Whether binding was seen depends on the method and setting. Some entries that bind do so weakly or less than the wild type. Sequences can lack the tags named with a protein.

Target: T1, human CXCL17 full-length ORF with a C-terminal His tag, expressed in CHO-761H cells (human), Q6UXB2
T1 chain: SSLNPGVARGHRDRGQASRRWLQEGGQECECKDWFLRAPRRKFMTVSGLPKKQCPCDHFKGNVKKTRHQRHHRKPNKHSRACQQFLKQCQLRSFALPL
Experiment: reducing SDS-PAGE and Western blot; CHO-761H cells transfected with C-terminally His-tagged CXCL17 ORF; lysates or Ni-NTA-concentrated supernatants run under reducing conditions and probed with anti-CXCL17 antiserum; bands of approximately 15 and 30 kDa
Settings: remark: other sources report otherwise

B1: human CXCL17 full-length ORF with a C-terminal His tag, expressed in CHO-761H cells, Q6UXB2 22-119 (protein)
chain: T1 chain
In the case of B1, the binding is reported as “binds”.
